tested on: serum IgG autoantibodies; assay: ELISA for autoantibody detection: serum antibody binding to native and oxPTM insulin peptides; parameters: species or system human; conditions: type 1 diabetes vs healthy controls; in house modifications
Procedure: ELISA for autoantibody detection. The ELISA analysis of Nt-INS and oxPTM-INS autoantibodies was performed as previously described [18](detailed in ESM methods, ELISA assay for antibody detection).
Statistical analyses. Statistical analyses were performed using Prism Software 9.0 (GraphPad, San Diego, CA, USA). Cut-off points of positivity (binders) in the antibody ELISA for each peptide were defined by the mean of optical absorbance (O.D) of healthy controls to the corresponding Nt-INSP plus three times the standard error of the mean (SEM). Specificity and sensitivity were evaluated by receiver operating characteristic (ROC) curve analysis. Area under the curve (AUC) is reported as absolute value and was tested for equality according to DeLong et al. Differences in antibody levels and T-cell stimulation indices (SI) between groups were tested by the One way ANOVA or Student's t-tests as appropriate. Correlation analyses were tested by Pearson or Spearman's test, as appropriate. Categorical analyses were performed by Chi-square or McNemar's tests, as appropriate. For each set of experiments, p values were adjusted for multiple comparison using the Holm-Sidak's test. Hierarchical cluster and Principal Component Analysis (PCA) was done using Clustvis software (https://biit.cs.ut.ee/clustvis/) and Prism Software 9.0, respectively.
Antibody reactivity of type 1 diabetes serum against the candidate oxPTM-INSP. Identified peptide candidates were synthesised and exposed to either HOCl or ^●OH to generate oxPTM-INSPs that were first assessed by TOF-MS/ES+TIC to confirm modification (FIG. 17). Antibody response against native INSPs (Nt-INSPs) and oxPTM-INSPs was evaluated by ELISA using sera from Study cohort 1.
ESM Methods ELISA assay for antibody detection. The ELISA analysis of native (Nt-INS) and modified insulin (oxPTM-INS) was performed as previously described. […] The optical density (O.D.) was measured at 450 nm using a GENios plate reader and Magellan software (TECAN, Dorset, UK).

Sequence | AUC (ROC)
ERGFFYTPKT [insulin B:21-30 native peptide] | 0.879
LVEALYLVCGERGFFYTPKT [insulin B:11-30 native peptide] | 0.730
SLYQLENYCN [insulin A:12-21 native peptide] | 0.648

Reference: patent US20260072027A1, “Peptides And Method” (Queen Mary University of London, priority 2022, published 2026)
